# From PubChem BioAssay AID2685 (National Center for Advancing Translational Sciences (NCATS), 2010)
# “And” between values parts separate entries of the source, which are not always exact repeats. Equal entries are not always repeated. This is one part of the list. These are further read-outs of the screen, such as a control signal, another cell line or another target. No call is given for them. The list favours compounds with an active or inconclusive main result. The note in brackets gives the kind of curve behind each potency; many fits are weak.
# Assay: qHTS Assay for Lipid Storage Modulators in Drosophila S3 Cells;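 as to cell number change: cells counted by Cell Tracker Red CMTPX staining in the red channel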
# Conditions: BODIPY lipid droplet fluorescence, 18-24 h; for cell number change: measured here: cell count max response, cells fed with added oleic acid
# How it was run: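 Drosophila S3 cells got compounds at several concentrations plus oleic acid (400 uM solution). Laser-scanning cytometry with 488 nm excitation read lipid droplets at 500-530 nm and cells at 575-640 nm. Percent activity was relative to 20 uM Triacsin C.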
# [1] = measured here: cell number channel AC50, cells fed with added oleic acid
# [2] = measured here: lipid fluorescence (Fed channel) AC50, cells fed with added oleic acid
Compound,cell number change,AC50 [1],AC50 [2]
Cc1ccc(/C=C2\SC(=S)N(CCC(=O)Nc3ccc(O)cc3)C2=O)cc1,-32%,"29.1 µM [falling, single point]","29.1 µM [falling, single point]"
Cc1cccc(NC(=O)c2ccc(F)c(S(=O)(=O)NCc3ccco3)c2)c1,-28%,"0.00461 µM [falling, full curve, poor fit]","29.1 µM [falling, single point]"
O=C(CSc1cccc2cccc(Cl)c12)NCc1cccs1,-20.9%,"0.291 µM [falling, partial curve, poor fit]",
CCCCCc1cc(=O)oc2c(C(CCN(CC)CC)c3ccc(OC)cc3)c(OC)cc(OC)c12 (centres undefined),-48.4%,"29.1 µM [falling, single point]","23.1 µM [falling, single point]"
Cc1c(C(=O)N(Cc2ccc(Cl)cc2)C2CCS(=O)(=O)C2)oc2ccccc12 (centres undefined),,,"18.4 µM [falling, partial curve]"
CCOc1ccc(NC(=O)CN(C)CC(=O)Nc2ccc(Br)cc2F)cc1OCC,25.8%,"4.11 µM [rising, full curve, poor fit]","0.651 µM [rising, full curve, poor fit]"
CCOCc1nnc(NC(=O)c2cc(OC)c(OC)c(OC)c2)s1,-0.356%,,"0.058 µM [falling, full curve, poor fit]"
Cc1cc(Cl)ccc1C(=O)C1CCCN(C(=O)CN2CCOC2=O)C1 (centres undefined),5.1%,"0.164 µM [rising, partial curve]","0.0058 µM [rising, full curve, poor fit]"
O=[N+]([O-])c1cc(Cl)cc(/C=N/NC(=S)Nc2cc(S(=O)(=O)N3CCOCC3)ccc2Cl)c1O,-14.7%,,"0.651 µM [rising, partial curve]"
CCOC(=O)[C@@H]1[C@H]2COc3ccccc3[C@H]2N2C(=O)N(c3ccc(F)cc3)C(=O)[C@]12C,17.7%,,"29.1 µM [rising, single point]"
COC(=O)c1ccc(NC(=O)CCN2CCCCC2)cc1,-7.17% and -61.4%,"32.6 µM [falling, single point]","23.1 µM [falling, partial curve] and 29.1 µM [falling, single point]"
O=C(NC1CCCC1)C(c1ccco1)N(C(=O)c1ccco1)c1ccc(F)cc1 (centres undefined),3.85%,,"0.13 µM [rising, full curve]"
CC(=O)c1ccc(NC(=O)c2ccc([N+](=O)[O-])o2)cc1,-40.7%,"11.6 µM [falling, partial curve, poor fit]","4.61 µM [falling, full curve]"
Cc1ccc(NC(=S)N(CCCN(C)C)Cc2cc3cc4c(cc3[nH]c2=O)OCO4)c(C)c1,26.1%,,"5.17 µM [rising, full curve, poor fit]"
CCOc1ccc(S(=O)(=O)Nc2ccc(C(=O)NNC(=O)c3ccncc3)cc2)cc1,42.4%,"7.31 µM [rising, full curve]",
Cc1ccnc(NS(=O)(=O)c2ccc(NC(=O)c3ccc(S(=O)(=O)N4CCCC4)cc3)cc2)n1,-29.3%,"5.17 µM [falling, full curve, poor fit]","23.1 µM [falling, single point]"

Compound,cell number change,AC50 [1],AC50 [2]
CCc1nnc(NC(=O)CN2CCN(C3CCCCC3)CC2)s1,-110%,"0.58 µM [falling, full curve]","0.411 µM [falling, full curve]"
COc1ccc(-c2c(NC(=O)c3ccco3)oc3c(C)cccc3c2=O)cc1,-6.84%,"3.26 µM [falling, single point]","6.51 µM [falling, single point]"
O=C(O)CCCn1c(=S)[nH]c2c(sc3ccc([N+](=O)[O-])cc32)c1=O,-11.8%,,"0.116 µM [rising, full curve, poor fit]"
CC(=O)Nc1ccc(C#Cc2ccc(NC(C)=O)cc2)cc1,-18%,"0.0461 µM [falling, single point]","0.58 µM [falling, single point]"
O=C(OCCN1CCCCC1)c1ccccc1Cl,-72.7%,"29.1 µM [falling, single point]","29.1 µM [falling, single point]"
Cc1ccc(CNC(C)(C)CO)cc1,-11.5%,,"13 µM [rising, partial curve, poor fit]"
CCOC(=O)c1c(C(F)(F)F)nc2ncccn12,6.24%,"6.51 µM [rising, single point]",
COc1cc(C(=O)OCC(C)=O)cc(NC(=O)c2ccco2)c1OC,72.7%,"23.1 µM [rising, single point]",
COc1cccc(-c2noc(CCC(=O)NCC3CCCO3)n2)c1 (centres undefined),50.3%,"0.92 µM [rising, full curve, poor fit]",
O=C(NC1CCCCCC1)C(=O)NC1CC1,-23.6%,,
COc1ccc(OC)c(S(=O)(=O)Nc2ccc(O)c3ccccc23)c1,-108%,"29.1 µM [falling, single point]",
COc1ccc(N2CCN(C(=O)CSc3ncnc4c3cnn4-c3ccccc3C)CC2)cc1,,"6.51 µM [rising, single point]","6.51 µM [rising, single point]"
COc1cc(C(=O)OC2CCCCC2=O)cc(OC)c1C (centres undefined),7.03%,,"0.00461 µM [falling, full curve, poor fit]"
Cc1ccc(S(=O)(=O)N2CCC(C(=O)OCC(=O)NCCc3ccccc3)CC2)cc1C,-0.33%,,"16.4 µM [rising, single point]"
CCn1c(SCC(=O)NC2CCCC2)nnc1-c1ccncc1,3.48%,,"2.91 µM [falling, single point]"
Cn1c(CC(=O)Nc2ccccc2F)nnc1SCC(=O)NC1CCCCC1,16.2%,"1.03 µM [rising, partial curve, poor fit]",
